Test results as given in PMC11321617 (Advanced Science, 2024).
Converted amounts (≈) assume the structure as drawn.

System: Escherichia coli O157:H7
Assay: microbe, parasite or virus in culture
Format: cell-based
Conditions: 18 h
Protocol: The MICs of the peptides were determined using the microplate broth dilution method.^[ [32] ^] The bacteria in the mid‐log phase were diluted to 5 × 10^5 colony forming units (CFU) mL^−1 in TSB. 100 µL of serially diluted peptide solution and 100 µL of diluted bacteria were put to a sterile 96‐well plate.

SMILES: CC1(C)S[C@@H]2[C@H](NC(=O)[C@H](N)c3ccccc3)C(=O)N2[C@H]1C(=O)O [ampicillin, Ampicillin]
- MIC: 12.5 µM (≈ 4.37 µg/mL)
